Results from US20080045469A1.
Results are given in words; binding and its absence hold for the method and conditions named. Some results given as binding are weak or reduced against the parent protein; the word gives no strength. Blank lines part the entries; values can stand above or below the binder they belong to.

Columns and labels:
[1] = target: T1, mouse VEGF (endogenous, produced by LLC cells) (mouse) (UniProt Q00731); assay: sandwich ELISA, anti-mVEGF capture and anti-mPLGF-1 detection
T1 sequence (looked up): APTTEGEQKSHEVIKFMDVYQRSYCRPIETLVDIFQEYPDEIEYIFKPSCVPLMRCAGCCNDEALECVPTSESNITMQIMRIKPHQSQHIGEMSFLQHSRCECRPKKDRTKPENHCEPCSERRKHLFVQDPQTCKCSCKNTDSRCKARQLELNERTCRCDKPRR

[2] = target: T1, mouse VEGF (endogenous, produced by LLC cells) (mouse); assay: inferred from ELISA, chemotaxis and cell shape assays of hPLGF-1-LLC conditioned medium
[3] = target: T1, mouse VEGF (endogenous, produced by LLC cells) (mouse); assay: discussion of the ELISA results in transduced LLC cells
[4] = target: T1, mouse VEGF (endogenous, produced by LLC cells) (mouse); assay: sandwich ELISA of cell lysates and conditioned media of hPLGF-1-KDEL-LLC cells

binding [1]: binds
B1: mouse PLGF-1 (endogenous, produced by LLC cells) (ligand, UniProt P49764 19-158, looked up)
chain: VHSQGALSAGNNSTEVEVVPFNEVWGRSYCRPMEKLVYILDEYPDEVSHIFSPSCVLLSRCSGCCGDEGLHCVPIKTANITMQILKIPPNRDPHFYVEMTFSQDVLCECRPILETTKAERRKTKGKRKRSRNSQTEEPHP

binding [2]: binds
B2: human PLGF-1 (PLGF-1 129) expressed in transduced LLC cells (ligand)
chain: LPAVPPQQWALSAGNGSSEVEVVPFQEVWGRSYCRALERLVDVVSEYPSEVEHMFSPSCVSLLRCTGCCGDENLHCVPVETANVTMQLLKIRSGDRPSYVELTFSQHVRCECRPLREKMKPERCGDAVPRR

binding [3]: binds
binding [4]: binds
B3: human PLGF-1 with C-terminal KDEL ER-retention signal (ligand)
chain: LPAVPPQQWALSAGNGSSEVEVVPFQEVWGRSYCRALERLVDVVSEYPSEVEHMFSPSCVSLLRCTGCCGDENLHCVPVETANVTMQLLKIRSGDRPSYVELTFSQHVRCECRPLREKMKPERCGDAVPRRKDEL
